Here are results for two molecules from article PMC9496920, “Anti-PTK7 Monoclonal Antibodies Inhibit Angiogenesis by Suppressing PTK7 Function” (Cancers, 2022).

Sequences of proteins named here, by UniProt entry; tags and fusion partners are left off. Residues count along the entry.
UniProt P35968, residues 20-1356: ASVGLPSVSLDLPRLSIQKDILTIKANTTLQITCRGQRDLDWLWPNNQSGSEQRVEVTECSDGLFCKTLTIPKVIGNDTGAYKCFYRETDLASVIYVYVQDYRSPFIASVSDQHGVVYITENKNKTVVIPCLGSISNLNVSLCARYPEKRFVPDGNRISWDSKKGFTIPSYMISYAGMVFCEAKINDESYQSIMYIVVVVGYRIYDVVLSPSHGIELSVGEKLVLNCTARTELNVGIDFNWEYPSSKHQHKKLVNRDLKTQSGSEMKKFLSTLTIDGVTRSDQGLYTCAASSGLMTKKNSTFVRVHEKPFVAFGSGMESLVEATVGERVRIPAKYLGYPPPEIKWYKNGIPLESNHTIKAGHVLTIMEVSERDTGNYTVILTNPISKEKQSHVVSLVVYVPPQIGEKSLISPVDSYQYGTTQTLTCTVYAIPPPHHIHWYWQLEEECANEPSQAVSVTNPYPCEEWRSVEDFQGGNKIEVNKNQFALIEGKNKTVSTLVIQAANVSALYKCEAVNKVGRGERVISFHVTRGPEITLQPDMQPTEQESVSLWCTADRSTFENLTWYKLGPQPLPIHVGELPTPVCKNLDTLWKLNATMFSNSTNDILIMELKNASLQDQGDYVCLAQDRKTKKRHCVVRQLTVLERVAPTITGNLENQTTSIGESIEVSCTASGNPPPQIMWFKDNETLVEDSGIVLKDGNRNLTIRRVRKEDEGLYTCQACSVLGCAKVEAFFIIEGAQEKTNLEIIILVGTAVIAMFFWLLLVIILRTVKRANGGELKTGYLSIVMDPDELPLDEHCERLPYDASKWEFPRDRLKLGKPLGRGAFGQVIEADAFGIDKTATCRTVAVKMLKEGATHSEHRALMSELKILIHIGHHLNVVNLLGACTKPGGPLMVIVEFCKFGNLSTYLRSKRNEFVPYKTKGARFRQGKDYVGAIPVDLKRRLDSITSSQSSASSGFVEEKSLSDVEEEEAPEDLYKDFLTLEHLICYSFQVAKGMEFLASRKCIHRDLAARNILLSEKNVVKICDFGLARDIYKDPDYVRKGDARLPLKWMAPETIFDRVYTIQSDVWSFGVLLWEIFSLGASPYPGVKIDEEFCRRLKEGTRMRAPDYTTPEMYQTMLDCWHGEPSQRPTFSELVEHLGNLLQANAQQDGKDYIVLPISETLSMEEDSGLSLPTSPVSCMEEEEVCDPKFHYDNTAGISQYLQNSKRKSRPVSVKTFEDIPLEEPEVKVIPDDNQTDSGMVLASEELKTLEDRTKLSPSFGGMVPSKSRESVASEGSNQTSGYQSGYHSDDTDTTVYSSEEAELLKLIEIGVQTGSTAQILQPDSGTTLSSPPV

The target of test [1] is T1, PTK7-FLAG (human PTK7 with a C-terminal FLAG tag) (human) (UniProt Q13308).
T1 sequence: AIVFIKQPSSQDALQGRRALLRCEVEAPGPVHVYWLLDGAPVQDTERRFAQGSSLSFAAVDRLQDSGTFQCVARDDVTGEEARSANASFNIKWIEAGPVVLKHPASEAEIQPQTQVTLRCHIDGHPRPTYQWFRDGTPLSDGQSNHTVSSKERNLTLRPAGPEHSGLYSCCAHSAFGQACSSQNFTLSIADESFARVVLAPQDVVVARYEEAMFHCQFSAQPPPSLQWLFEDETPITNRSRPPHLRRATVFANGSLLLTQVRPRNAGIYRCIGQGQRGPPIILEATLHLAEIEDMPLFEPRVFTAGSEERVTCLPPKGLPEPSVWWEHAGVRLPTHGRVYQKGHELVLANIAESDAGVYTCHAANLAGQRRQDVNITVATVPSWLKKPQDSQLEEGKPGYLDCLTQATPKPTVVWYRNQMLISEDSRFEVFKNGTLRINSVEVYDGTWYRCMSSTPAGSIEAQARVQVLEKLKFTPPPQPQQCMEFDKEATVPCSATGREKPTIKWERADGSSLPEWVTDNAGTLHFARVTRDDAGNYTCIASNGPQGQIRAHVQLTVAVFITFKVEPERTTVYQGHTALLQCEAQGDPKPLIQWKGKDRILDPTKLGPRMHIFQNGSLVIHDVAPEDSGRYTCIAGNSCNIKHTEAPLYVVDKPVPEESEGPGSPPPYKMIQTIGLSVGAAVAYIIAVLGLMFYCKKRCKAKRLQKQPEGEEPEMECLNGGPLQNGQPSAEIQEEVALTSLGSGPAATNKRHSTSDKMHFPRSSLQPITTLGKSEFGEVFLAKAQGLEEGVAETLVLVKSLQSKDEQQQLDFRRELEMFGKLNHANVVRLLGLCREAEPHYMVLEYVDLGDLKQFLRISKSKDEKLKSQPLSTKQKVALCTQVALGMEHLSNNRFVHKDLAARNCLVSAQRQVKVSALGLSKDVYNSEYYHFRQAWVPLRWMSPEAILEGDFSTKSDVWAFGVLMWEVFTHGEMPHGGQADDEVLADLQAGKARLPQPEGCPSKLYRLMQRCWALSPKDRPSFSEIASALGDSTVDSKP
Briefly: co-IP; HEK293 cells co-expressing PTK7-FLAG and KDR-HA, incubated 2 h with bovine IgG (10 ug/mL), sPTK7 (4 ug/mL) or anti-PTK7 mAbs (10 ug/mL); NP-40 lysis buffer; precipitated with anti-FLAG M2 antibodies; Western blot with anti-HA. A general note: In western blotting, separated proteins are transferred to a membrane and probed.

Test [2] has as its target KDR-HA (human KDR with a C-terminal HA tag) (human) (UniProt P35968). Briefly: co-IP; competition: purified sPTK7 (4 ug/mL) added for 2 h to HEK293 cells co-expressing PTK7-FLAG and KDR-HA; read-out is KDR-HA co-precipitated with PTK7-FLAG by anti-FLAG M2, compared with bovine IgG (10 ug/mL); only the binder purified.

Results are given in words; binding and its absence hold for the method and conditions named. In cells and extracts the contact can be indirect. Some binding calls cover weakened binding; strength is not graded here. For some assays here: Where a sequence is shown, tags or fusion partners need not be part of it.

As to “KDR-HA (human KDR with a C-terminal HA tag) (from UniProt P35968 20-1356) (receptor)”, the binding result in test [1] is on record as “binds”.

B1: soluble PTK7 (sPTK7, the extracellular domain of PTK7) (domain or fragment, UniProt Q13308 31-704)
chain: AIVFIKQPSSQDALQGRRALLRCEVEAPGPVHVYWLLDGAPVQDTERRFAQGSSLSFAAVDRLQDSGTFQCVARDDVTGEEARSANASFNIKWIEAGPVVLKHPASEAEIQPQTQVTLRCHIDGHPRPTYQWFRDGTPLSDGQSNHTVSSKERNLTLRPAGPEHSGLYSCCAHSAFGQACSSQNFTLSIADESFARVVLAPQDVVVARYEEAMFHCQFSAQPPPSLQWLFEDETPITNRSRPPHLRRATVFANGSLLLTQVRPRNAGIYRCIGQGQRGPPIILEATLHLAEIEDMPLFEPRVFTAGSEERVTCLPPKGLPEPSVWWEHAGVRLPTHGRVYQKGHELVLANIAESDAGVYTCHAANLAGQRRQDVNITVATVPSWLKKPQDSQLEEGKPGYLDCLTQATPKPTVVWYRNQMLISEDSRFEVFKNGTLRINSVEVYDGTWYRCMSSTPAGSIEAQARVQVLEKLKFTPPPQPQQCMEFDKEATVPCSATGREKPTIKWERADGSSLPEWVTDNAGTLHFARVTRDDAGNYTCIASNGPQGQIRAHVQLTVAVFITFKVEPERTTVYQGHTALLQCEAQGDPKPLIQWKGKDRILDPTKLGPRMHIFQNGSLVIHDVAPEDSGRYTCIAGNSCNIKHTEAPLYVVDKPVPEESEGPGSPPPYKMIQT
Regarding B1, the binding result in test [2] is “binds”.
